Record: PubChem BioAssay AID1259275 (Sanger Institute, 2017)
Screen: 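Kinome and custom colorectal gene library screened for lethal knock-downs and drug partners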 (primary screen). System: COLO320HSR human colorectal cancer cells. Reagent: siRNA pool against human genes. Challenge: anchor drug added one day after transfection: BYL719 at 1 µM, cetuximab at 5 µg/ml or trametinib at 10 nM; DMSO as vehicle arm. Measured: 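Viability averaged over replicates as a fraction of the non-targeting pool, a robust z-score for knock-down alone, and synergy scores with BYL719 (1 µM), cetuximab (5 µg/ml) or trametinib (10 nM)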. Direction: robust z-score, siRNA alone: higher = more viable cells; strongly negative means essential; viability, knock-down alone (DMSO): higher = more viable cells; synergy score with BYL719 and synergy score with cetuximab and synergy score with trametinib: higher = stronger combined killing with drug. Call rule: 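a gene is called essential when its robust z-score without drug falls below -3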. Meaning of the calls: active = essential (siRNA alone); inactive = no change (siRNA alone).
The deposit covers 794 reagents; this is a part drawn at random. 13 of all reagents (1.6%) were called active. 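Calls mark knock-downs lethal by themselves, not drug synergy; drugs went in a day after transfection, with DMSO as vehicle.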 Viability is capped at 1. Reagent sequences are not shown. Not given: the amount of reagent, the time to read-out.

Gene	robust z-score, siRNA alone	viability, knock-down alone (DMSO) (fraction of control)	synergy score with BYL719	synergy score with cetuximab	synergy score with trametinib	outcome
TGFBR2 (transforming growth factor beta receptor 2)	0.25	0.957	-0.15	-0.0856	-0.0353	inactive
SRMS	-0.726	0.869	0.0286	-0.0279	0.00397	inactive
PRPS1L1 (phosphoribosyl pyrophosphate synthetase 1 like 1)	0.726	1	-0.0414	-0.0595	0.0094	inactive
ATM (ATM serine/threonine kinase)	0.191	0.952	-0.0803	-0.133	-0.0464	inactive
BRSK2 (BR serine/threonine kinase 2)	0.722	1	-0.0512	-0.0167	-0.000249	inactive
GUCY2F (guanylate cyclase 2F, retinal)	0.726	1	-0.115	-0.0893	-0.0259	inactive
DYRK3 (dual specificity tyrosine phosphorylation regulated kinase 3)	0.655	0.994	-0.00888	-0.00964	-0.0201	inactive
CDK14 (cyclin dependent kinase 14)	0.726	1	-0.159	-0.0893	-0.0259	inactive
UHMK1 (U2AF homology motif kinase 1)	-1.75	0.777	-0.169	-0.0128	-0.138	inactive
PAPSS1 (3'-phosphoadenosine 5'-phosphosulfate synthase 1)	0.726	1	-0.131	-0.0893	-0.0259	inactive
FN3KRP (fructosamine 3 kinase related protein)	0.726	1	-0.106	-0.0854	-0.0259	inactive
BMAL1 (basic helix-loop-helix ARNT like 1)	-0.241	0.913	-0.0828	-0.169	-0.0547	inactive
WNK4 (WNK lysine deficient protein kinase 4)	0.726	1	-0.0516	-0.0893	-0.0259	inactive
DCLK1 (doublecortin like kinase 1)	0.726	1	-0.123	-0.0893	-0.0259	inactive
NUCKS1	0.24	0.956	-0.0879	-0.126	-0.0687	inactive
MAP3K9 (mitogen-activated protein kinase kinase kinase 9)	0.726	1	-0.00547	-0.0893	-0.0259	inactive
TLK1 (tousled like kinase 1)	0.553	0.984	-0.0798	-0.0239	-0.0113	inactive
JAK2 (Janus kinase 2)	0.279	0.96	-0.183	-0.103	-0.0653	inactive
BRD3 (bromodomain containing 3)	-1.17	0.829	-0.0744	-0.142	-0.192	inactive
NUP98 (nucleoporin 98 and 96 precursor)	-4.35	0.542	0.0162	-0.0912	-0.0212	active
ERBB4 (erb-b2 receptor tyrosine kinase 4)	0.726	1	-0.118	-0.0893	-0.0259	inactive
GSK3A (glycogen synthase kinase 3 alpha)	-0.41	0.897	-0.147	-0.136	-0.0693	inactive
PIK3C2G	0.726	1	-0.0328	-0.0215	-0.0259	inactive
HSPB8 (heat shock protein family B (small) member 8)	0.726	1	-0.114	-0.0893	-0.0259	inactive
IPMK (inositol polyphosphate multikinase)	-0.333	0.904	-0.132	-0.117	-0.0955	inactive
PCK2 (phosphoenolpyruvate carboxykinase 2, mitochondrial)	0.584	0.987	-0.0539	-0.101	-0.0385	inactive
PDGFRB (platelet derived growth factor receptor beta)	0.227	0.955	-0.113	-0.13	-0.0194	inactive
TNK1 (tyrosine kinase non receptor 1)	0.726	1	-0.155	-0.0893	-0.021	inactive
STRADB (STE20 related adaptor beta)	0.726	1	-0.228	-0.0893	0.0477	inactive
PDK4 (pyruvate dehydrogenase kinase 4)	0.726	1	-0.164	-0.0893	-0.0259	inactive
PRPS1 (phosphoribosyl pyrophosphate synthetase 1)	0.316	0.963	0.0303	-0.0467	-0.0135	inactive

Records listed so far whose target name begins with P or p:
Gene	robust z-score, siRNA alone	viability, knock-down alone (DMSO) (fraction of control)	synergy score with BYL719	synergy score with cetuximab	synergy score with trametinib	outcome
PRPS1L1 (phosphoribosyl pyrophosphate synthetase 1 like 1)	0.726	1	-0.0414	-0.0595	0.0094	inactive
PAPSS1 (3'-phosphoadenosine 5'-phosphosulfate synthase 1)	0.726	1	-0.131	-0.0893	-0.0259	inactive
PIK3C2G	0.726	1	-0.0328	-0.0215	-0.0259	inactive
PCK2 (phosphoenolpyruvate carboxykinase 2, mitochondrial)	0.584	0.987	-0.0539	-0.101	-0.0385	inactive
PDGFRB (platelet derived growth factor receptor beta)	0.227	0.955	-0.113	-0.13	-0.0194	inactive
PDK4 (pyruvate dehydrogenase kinase 4)	0.726	1	-0.164	-0.0893	-0.0259	inactive
PRPS1 (phosphoribosyl pyrophosphate synthetase 1)	0.316	0.963	0.0303	-0.0467	-0.0135	inactive

The listing continues.
Gene	robust z-score, siRNA alone	viability, knock-down alone (DMSO) (fraction of control)	synergy score with BYL719	synergy score with cetuximab	synergy score with trametinib	outcome
STK4 (serine/threonine kinase 4)	-0.181	0.918	-0.153	-0.162	-0.0577	inactive
CSNK2A1 (casein kinase 2 alpha 1)	0.726	1	-0.0913	-0.0893	-0.0259	inactive
PIKFYVE (phosphoinositide kinase, FYVE-type zinc finger containing)	0.665	0.994	-0.114	-0.0309	-0.0313	inactive
ULK2 (unc-51 like autophagy activating kinase 2)	-1.91	0.762	-0.158	-0.185	-0.106	inactive
ITPK1 (inositol-tetrakisphosphate 1-kinase)	0.726	1	-0.0692	-0.0608	-0.00348	inactive
MYLK3 (myosin light chain kinase 3)	-0.527	0.887	-0.0327	-0.156	-0.0188	inactive
NRBP1 (nuclear receptor binding protein 1)	0.726	1	-0.244	-0.0893	-0.0259	inactive
PLK2 (polo like kinase 2)	0.334	0.965	-0.0373	-0.0917	-0.0157	inactive
MAP3K8 (mitogen-activated protein kinase kinase kinase 8)	0.726	1	-0.134	-0.0893	-0.0259	inactive
CNOT1 (CCR4-NOT transcription complex subunit 1)	-0.964	0.847	-0.24	-0.0163	-0.0722	inactive
CDADC1 (cytidine and dCMP deaminase domain containing 1)	-0.196	0.917	-0.118	-0.163	-0.0855	inactive
CDKL3 (cyclin dependent kinase like 3)	0.726	1	-0.185	-0.0893	-0.0259	inactive
ERN1 (endoplasmic reticulum to nucleus signaling 1)	0.726	1	-0.0908	-0.0893	-0.0259	inactive
COQ8B (coenzyme Q8B)	0.726	1	0.0118	-0.0613	-0.0259	inactive
SKAP1 (src kinase associated phosphoprotein 1)	0.726	1	-0.129	-0.0893	-0.0259	inactive
NEK1 (NIMA related kinase 1)	-1.87	0.766	-0.129	-0.211	-0.151	inactive
AXIN2 (axin 2)	-0.0723	0.928	-0.0521	-0.0463	0.0162	inactive
MAP3K12 (mitogen-activated protein kinase kinase kinase 12)	0.726	1	-0.169	-0.0893	-0.0259	inactive
STK25 (serine/threonine kinase 25)	0.726	1	-0.0295	-0.0513	0.043	inactive
